PubChem BioAssay AID504786, Drosophila RNAi Screening Center, 2011
Test: 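Knock-downs reducing HIF reporter induction by the iron chelator DFO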 (primary screen). Cells: Drosophila S2 cells with a stable HIF luciferase reporter. Reagent: long dsRNA against Drosophila genes, about 0.2 µg dsRNA per well of a 384-well plate. Timing: three days of knock-down, then 20 h of DFO before reading. Treatment: desferrioxamine (DFO) at 100 µM, an iron chelator that mimics hypoxia, for 20 h. Measurement: 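HIF reporter luminescence in cells given 100 µM DFO for 20 h, using the mouse ldh-a hypoxia-response element, scored as per-plate z-scores; higher means greater loss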. Reading the numbers: z-score: higher = stronger loss of HIF reporter signal.
The deposit covers about 21,000 reagents; this is an unselected part of those with a known target gene and a result. 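Primary screen; positive scores mean lost reporter signal, so the sign may be inverted from the usual convention.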 Names joined by + are all predicted targets of the reagent. Not all columns of the deposit are shown.

z-score, replicate 1, by gene knocked down and reagent
Nse1 (Non-SMC element 1): DRSC02147 -0.2
bel (belle): DRSC16555 -0.6
bic (bicaudal): DRSC07584 0.3
CG32198: DRSC09553 -0.4
CG17104: DRSC02573 -0.4
MED21 (Mediator complex subunit 21): DRSC20932 0.2
CG32536 + CG32537: DRSC20074 -0.2
CG12644 (retired record): DRSC17850 -0.1
CG30345: DRSC05144 0
dac (dachshund): DRSC03518 0.3
CG42240: DRSC18097 -0.2
Ca-alpha1T (Ca[2+]-channel protein alpha[[1]] subunit T): DRSC17842 -0.1; DRSC18103 -0.3; DRSC18356 -0.2; DRSC18357 -0.3
wts (warts): DRSC17096 4.3
CG34002: DRSC09512 0.1; DRSC11953 -0.4
spdi (split discs): DRSC18487 -0.2; DRSC18488 -0.3
pit (pitchoune): DRSC17025 0
Dus1 (Dihydrouridine synthase 1): DRSC00623 -0.1
Spn42Db (Serpin 42Db): DRSC05009 -0.1
CG7255: DRSC10790 -0.3
CG12253: DRSC02153 -0.4
CG18371: DRSC06733 -0.3
CG17300: DRSC10260 -0.3
CG2006: DRSC15412 -0.4
Gr10b (Gustatory receptor 10b): DRSC19477 -0.2
CG30154: DRSC05889 0.3
Shab (Shaker cognate b): DRSC08013 -0.3; DRSC08643 -0.5; DRSC08699 0
Lar (Leukocyte-antigen-related-like): DRSC01707 0.1; DRSC03361 -0.4
CG7924: DRSC10931 -0.3
Gcat (Glycine C-acetyltransferase): DRSC09719 -0.4
Ube4B (Ubiquitination factor E4B): DRSC03277 -0.3
dup (double parked): DRSC07088 4.5
Unc-115b + p24-2: DRSC16492 -0.3
grnd (grindelwald): DRSC02020 -0.2
PIP5K59B (Phosphatidylinositol 4-phosphate 5-kinase 59B): DRSC04290 -0.2; DRSC04403 -0.2
CG13220: DRSC06342 -0.1
CG17234: DRSC00490 -0.3
CG18870: DRSC04313 -0.3
CG5854: DRSC15894 0.1
CG17030: DRSC08503 -0.3
CG31106: DRSC14655 0
CG10102 (retired record): DRSC05963 1
Cpr72Eb (Cuticular protein 72Eb): DRSC09870 -0.2
Use1 (Unconventional SNARE in the ER 1): DRSC10180 -0.4
hrg (hiiragi): DRSC07502 0.9
tous (testes of unusual size): DRSC04464 -0.3
CG14286: DRSC14767 -0.1
CG17124: DRSC02580 -0.3
eIF3f2 (eukaryotic translation initiation factor 3 subunit f2): DRSC04903 -0.3
CG8173: DRSC20088 -0.3
CG9117: DRSC03141 -0.2
CG13029: DRSC09909 -0.3
CG33232 (retired record): DRSC08187 -0.2; DRSC08495 2.1
Kpc1 (Kip1 ubiquitination-promoting complex subunit 1): DRSC16107 -0.4
CG15865: DRSC19733 -0.1
geminin: DRSC04984 0
zpg (zero population growth): DRSC09702 -0.4
CG14229: DRSC19585 0.1
CG9776: DRSC12127 -0.4
CG6938: DRSC10752 0
CG12857: DRSC06197 -0.3
betaTub65B (beta-Tubulin at 65B): DRSC11393 -0.5
Spf45: DRSC03826 0.3
CG11670: DRSC14342 0
CG9123: DRSC20156 -0.2
CG31778: DRSC00283 -0.2
CNMaR (CNMamide Receptor): DRSC08992 0.3; DRSC10224 -0.3
CG3634: DRSC11747 0
Vps51 (Vacuolar protein sorting 51): DRSC06519 -0.2
Dh44-R2 (Diuretic hormone 44 receptor 2): DRSC06141 -0.3; DRSC06281 0.1
CG12420: DRSC14514 -0.3
CG7239: DRSC03038 0

7 entries from above, set out differently.
gene knocked down | dsRNA | z-score, replicate 1
CG17030 | DRSC08503 | -0.3
CG31106 | DRSC14655 | 0
CG10102 (retired record) | DRSC05963 | 1
Cpr72Eb (Cuticular protein 72Eb) | DRSC09870 | -0.2
Use1 (Unconventional SNARE in the ER 1) | DRSC10180 | -0.4
hrg (hiiragi) | DRSC07502 | 0.9
tous (testes of unusual size) | DRSC04464 | -0.3
